Laboratory results taken from paper doi:10.1101/2023.10.16.555467.
Where two headings read alike, the source gives them in different places. No constants are given. Whether binding was seen depends on the method and setting. In cells and extracts the contact can be indirect. Some results given as binding are weak or reduced against the parent protein; the word gives no strength.

The chains behind the UniProt entries cited, without tags or fusion partners.
UniProt P35465: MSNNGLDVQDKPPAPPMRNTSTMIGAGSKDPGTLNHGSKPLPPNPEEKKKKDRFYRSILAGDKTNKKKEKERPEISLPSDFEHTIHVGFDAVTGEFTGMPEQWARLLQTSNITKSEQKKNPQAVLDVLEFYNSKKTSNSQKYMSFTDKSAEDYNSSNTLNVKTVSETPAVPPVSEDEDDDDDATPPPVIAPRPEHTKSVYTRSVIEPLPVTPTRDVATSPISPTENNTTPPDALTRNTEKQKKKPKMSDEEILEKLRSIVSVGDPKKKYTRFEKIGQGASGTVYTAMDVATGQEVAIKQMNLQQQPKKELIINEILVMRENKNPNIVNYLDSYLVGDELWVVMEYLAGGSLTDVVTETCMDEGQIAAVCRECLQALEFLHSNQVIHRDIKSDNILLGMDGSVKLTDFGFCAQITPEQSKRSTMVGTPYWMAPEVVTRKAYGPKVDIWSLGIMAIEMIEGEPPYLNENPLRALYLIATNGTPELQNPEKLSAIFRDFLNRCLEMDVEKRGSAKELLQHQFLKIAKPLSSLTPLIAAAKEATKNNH

What was measured:
[1] = biological target: P21-activated kinase 1 (PAK1) (rat (endogenous in primary rat oligodendrocytes)) (UniProt P35465); experiment: co-IP
[2] = biological target: P21-activated kinase 1 (PAK1) (rat (endogenous in primary rat oligodendrocytes)) (UniProt P35465); experiment: co-IP; remark: listed apart in the source

binding [1]: binds
binding [2]: binds
B1: NF2/Merlin (protein, UniProt Q63648 1-586)
chain: IASRMSFSSLKRKQPKTFTVRIVTMDAEMEFNCEMKWKGKDLFDLVCRTLGLRETWFFGLQYTIKDTVAWLKMDKKVLDHDVSKEEPVTFHFLAKFYPENAEEELVQEITQHLFFLQVKKQILDEKVYCPPEASVLLASYAVQAKYGDYDPSVHKRGFLAQEELLPKRVINLYQMTPEMWEERITAWYAEHRGRARDEAEMEYLKIAQDLEMYGVNYFTIRNKKGTELLLGVDALGLHIYDPENRLTPKISFPWNEIRNISYSDKEFTIKPLDKKIDVFKFNSSKLRVNKLILQLCIGNHDLFMRRRKADSLEVQQMKAQAREEKARKQMERQRLAREKQMREEAERSRDEPERRVLHMKEEATMANEALMRSEETADLLAEKAQITEEEAKLLAQKAAEAEQEMQRIKATAIRTEEEKRLMEQKVLEAEVLALKMAEESERRAKEADQLKQDLQEAREAERRAKQKLLEIATKPTYPPMNPIPAPLPPDIPSFDIIGDSLSFDFKDTDMKRLSMEIEKEKVEYMEKSKHLQEQLNELKTEIEALKLKERETALDILHSEHSDSGTSSKHNTIKKPQAQGRRPICI
